No constants are given. Whether binding was seen depends on the method and setting. In cells and extracts the contact can be indirect. Some entries that bind do so weakly or less than the wild type. Tags and fused reporters may be left off the sequences shown.
Target: T1, V5-tagged active WNT11 (UniProt O96014)
T1 sequence: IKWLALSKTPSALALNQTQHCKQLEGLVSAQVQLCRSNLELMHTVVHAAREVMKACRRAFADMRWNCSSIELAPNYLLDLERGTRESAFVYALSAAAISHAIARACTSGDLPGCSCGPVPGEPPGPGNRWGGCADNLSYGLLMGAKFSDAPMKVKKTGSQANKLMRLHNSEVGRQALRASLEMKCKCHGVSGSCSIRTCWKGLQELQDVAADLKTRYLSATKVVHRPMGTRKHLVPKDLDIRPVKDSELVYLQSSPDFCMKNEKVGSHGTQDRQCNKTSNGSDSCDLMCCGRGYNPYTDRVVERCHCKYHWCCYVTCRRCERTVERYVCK
Assay: co-IP

The chains behind the UniProt entries cited, without tags or fusion partners. Residues count along the entry.
UniProt Q01974, residues 34-943: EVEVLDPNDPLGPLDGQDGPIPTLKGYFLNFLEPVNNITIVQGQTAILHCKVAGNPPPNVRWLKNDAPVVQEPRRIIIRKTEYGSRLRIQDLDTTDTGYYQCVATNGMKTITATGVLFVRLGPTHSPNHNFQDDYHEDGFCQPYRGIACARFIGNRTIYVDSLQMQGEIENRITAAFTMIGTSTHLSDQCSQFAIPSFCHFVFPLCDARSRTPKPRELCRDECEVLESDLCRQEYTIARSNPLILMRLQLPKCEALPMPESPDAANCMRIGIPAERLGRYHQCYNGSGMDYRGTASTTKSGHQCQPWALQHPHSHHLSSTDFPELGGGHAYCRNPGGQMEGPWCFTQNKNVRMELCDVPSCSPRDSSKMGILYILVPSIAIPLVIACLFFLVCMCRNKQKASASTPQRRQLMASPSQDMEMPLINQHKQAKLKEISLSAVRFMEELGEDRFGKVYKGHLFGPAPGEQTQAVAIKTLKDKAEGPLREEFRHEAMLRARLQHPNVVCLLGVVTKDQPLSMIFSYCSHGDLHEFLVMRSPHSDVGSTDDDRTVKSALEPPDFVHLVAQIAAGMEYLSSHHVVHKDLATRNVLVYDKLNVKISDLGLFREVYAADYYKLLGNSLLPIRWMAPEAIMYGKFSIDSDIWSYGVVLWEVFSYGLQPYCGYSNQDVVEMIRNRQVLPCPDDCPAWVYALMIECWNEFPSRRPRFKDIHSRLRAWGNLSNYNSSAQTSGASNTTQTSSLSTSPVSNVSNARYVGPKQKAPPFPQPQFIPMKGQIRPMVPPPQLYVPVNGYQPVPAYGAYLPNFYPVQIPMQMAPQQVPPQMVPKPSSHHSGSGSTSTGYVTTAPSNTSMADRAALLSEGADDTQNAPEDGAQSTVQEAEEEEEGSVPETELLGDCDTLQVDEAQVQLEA

ROR2 full length (pROR2-FL) (from UniProt Q01974 34-943) (receptor)
binding: binds

Source: publication doi:10.1101/2020.12.18.423402
